# Source: paper PMC7819943, “Rice protein-binding microarrays: a tool to detect cis-acting elements near promoter regions in rice”
# The other results are listed elsewhere or left out.
# Target: T1, OsSMF1 (Oryza sativa, UniProt Q6ZLB0 1-436)
# T1 sequence: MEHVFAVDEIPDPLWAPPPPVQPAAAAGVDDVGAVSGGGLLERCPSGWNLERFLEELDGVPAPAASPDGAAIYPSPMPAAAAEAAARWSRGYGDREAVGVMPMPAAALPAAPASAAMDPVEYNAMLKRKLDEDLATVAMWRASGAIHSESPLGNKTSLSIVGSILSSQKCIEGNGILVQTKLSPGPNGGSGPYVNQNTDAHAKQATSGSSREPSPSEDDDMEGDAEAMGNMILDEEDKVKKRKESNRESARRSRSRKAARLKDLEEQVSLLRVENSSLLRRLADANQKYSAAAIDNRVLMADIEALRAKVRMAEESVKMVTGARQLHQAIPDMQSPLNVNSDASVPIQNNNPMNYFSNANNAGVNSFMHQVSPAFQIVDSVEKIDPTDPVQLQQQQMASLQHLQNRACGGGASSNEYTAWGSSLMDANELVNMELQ
# Experiment: protein-binding microarray (RPBM); PBS, 2% BSA, 51.3 ng/ul salmon testes DNA, 50 uM zinc acetate, 200 nM TF, 25 C, 1 h; high values mean tight binding
# Details: protein: recombinant; tags: N-terminal polyhistidine and DsRed monomer fusion (pET32a); chain copies: 2; label: CyDye5-dUTP incorporated in the synthesized complementary strand; 3' TTTTT single-stranded linker to array surface; dsDNA, one strand shown
# Outline: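 The binding signal is fluorescence intensity per feature, in arbitrary units, read on an Axon 4000B scanner. Polyhistidine- and DsRed-tagged transcription factors (N-terminal fusions) from E. coli BL21-CodonPlus were purified on Ni–NTA and applied at 200 nM for 1 h at 25 °C to a double-stranded, BSA-blocked custom Agilent array in buffer with 50 µM zinc acetate.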
row,Sequence,binding signal
1,GAGAAATGACGACACATCCTCTCGAGTGATCAGGATCCGTCGGAGTCACCTAGTGCAG,3590 fluorescence intensity (a.u.)
2,TTGGGTGCGCGTCGATTGATTCATTTGATTGGTAGGTATTCGGAGTCACCTAGTGCAG,3470 fluorescence intensity (a.u.)
3,CGTCGAGAAGGCGACCCAAGTCGCCAAACGCGAAACCGGTCGGAGTCACCTAGTGCAG,38500 fluorescence intensity (a.u.)
4,TTATATCTTGTATTTCCAAATCGTTTGCACCATGAAGATCCGGAGTCACCTAGTGCAG,18200 fluorescence intensity (a.u.)
5,AGTTCTTGGGGATGAGTGAGGAAGTGTGTCACATCCTGCTCGGAGTCACCTAGTGCAG,4140 fluorescence intensity (a.u.)
6,CTTGCAGAGTTATTATTAATTTACACGCATGCAGCAGGCCCGGAGTCACCTAGTGCAG,3700 fluorescence intensity (a.u.)
7,GCGGCGGTGGGCGTGGGCGAGGTGGAGCTTGCCGTGACGCCGGAGTCACCTAGTGCAG,3820 fluorescence intensity (a.u.)
8,CTCCTCAATGACGCAATAGGCAACAACTCCTCTTGACGGCCGGAGTCACCTAGTGCAG,3540 fluorescence intensity (a.u.)
9,GCCGTCCCGCCCACCGCCGCCACCTACGCGCTCTACCTCTCGGAGTCACCTAGTGCAG,4290 fluorescence intensity (a.u.)
10,CAGCAGCCTCCAGCACTTGGTCACACACGTCACTCTACCACGGAGTCACCTAGTGCAG,8630 fluorescence intensity (a.u.)
11,TTTGGTACTTGTGTCCTGCCTCCACATCAGCTTCAGAGACCGGAGTCACCTAGTGCAG,5140 fluorescence intensity (a.u.)
12,CGAGCCAATGCCGTGTGTCTGAGTCTGACCCGTTGATTCTCGGAGTCACCTAGTGCAG,18400 fluorescence intensity (a.u.)
13,GAACAACAATGCTTCTATTCATACGTGGATTTTCTATTCACGGAGTCACCTAGTGCAG,3900 fluorescence intensity (a.u.)
14,TTGACTCCTGTTTTGTCCAACGTGGCAGCTGATTCAGCGTCGGAGTCACCTAGTGCAG,11100 fluorescence intensity (a.u.)
15,CTCCGTAGTACTAGTAGTAGACGACGTGTTCCCACCTGTCCGGAGTCACCTAGTGCAG,4880 fluorescence intensity (a.u.)
16,CACTTGGCCTTCCGCGTCCGTCCCTGACTCGGCGGCAGCGCGGAGTCACCTAGTGCAG,3510 fluorescence intensity (a.u.)
17,CACCAAGTCAACAACGTCACGTCAGCGAAACCATTCTCCACGGAGTCACCTAGTGCAG,9370 fluorescence intensity (a.u.)
18,AAAGCTATCATCAATCCATCCAATATCCATCGTGCACTGACGGAGTCACCTAGTGCAG,3580 fluorescence intensity (a.u.)
19,GTTTTAGTGGGTTGTTTCGTTGACGTGGTGCTATGACCCGCGGAGTCACCTAGTGCAG,9220 fluorescence intensity (a.u.)
20,GGAGCCTAATTACTGACATGAGTCATAAGATCAAAGGTCTCGGAGTCACCTAGTGCAG,5840 fluorescence intensity (a.u.)
21,TAGTTCTATTGTTCTACAGAAATATGTAGTAGCTATACGTCGGAGTCACCTAGTGCAG,3330 fluorescence intensity (a.u.)
22,CCTTCACCGCCTCCGCCTCTTTGACCTCCTCCTCCGCCATCGGAGTCACCTAGTGCAG,24700 fluorescence intensity (a.u.)
23,CCCATATACAATTGCCTTACCTGTCCCCACCTGTCACATGCGGAGTCACCTAGTGCAG,3170 fluorescence intensity (a.u.)
24,GTGATATTCTGTCTTCCTGTGATATCAGCACTGTTTTATGCGGAGTCACCTAGTGCAG,3450 fluorescence intensity (a.u.)
25,ATAAAGTGAGCGATGAGTCATATCATTATCTCCCGCCTGCCGGAGTCACCTAGTGCAG,16400 fluorescence intensity (a.u.)
26,GAAGTGCCACGTAAGCACCACATCAATGCCACGTCAGATGCGGAGTCACCTAGTGCAG,38800 fluorescence intensity (a.u.)
27,GGTTCTACAAATTTCTTAGTACAGTATAGACACGTCGGAGCGGAGTCACCTAGTGCAG,5910 fluorescence intensity (a.u.)

row,Sequence,binding signal
1,TAGGTCTCGATTTTGTTTTCTTGGAGATCTGTGATGTCATCGGAGTCACCTAGTGCAG,5240 fluorescence intensity (a.u.)
2,AGTAACCGACTCCTTTCCAACGTGTTCCCCACGAAGCCGGCGGAGTCACCTAGTGCAG,4560 fluorescence intensity (a.u.)
3,CTTTGCTTGGCCCGATCCTTACCTTTGCTGGCTTGTACTGCGGAGTCACCTAGTGCAG,3790 fluorescence intensity (a.u.)
4,AACACGCAAAACTCTAATAATCCTGTCTATGTTTCTCTCTCGGAGTCACCTAGTGCAG,30000 fluorescence intensity (a.u.)
5,CCGCCCGCCCGCTCTCCTCCTCCTACACGTGGGACCCACCCGGAGTCACCTAGTGCAG,7850 fluorescence intensity (a.u.)
6,AAAATCAGCACGTCACTACGGCTATATATATAGTACACGTCGGAGTCACCTAGTGCAG,6880 fluorescence intensity (a.u.)
7,CCGCGAGACGACGCGAGCGCACGCACGCCTGCACGCGCGGCGGAGTCACCTAGTGCAG,3330 fluorescence intensity (a.u.)
8,CTTAGTCGCCATTTTCTTCCCATATCCACGCGCCACGTGGCGGAGTCACCTAGTGCAG,25100 fluorescence intensity (a.u.)
9,AGAGCAAGACAAGATGGTTAGTTCTCACACTTCAGATTGTCGGAGTCACCTAGTGCAG,41400 fluorescence intensity (a.u.)
10,ATGCGCCCATAATGGGCTGTCCTTGTCACGGGCTAAGCTACGGAGTCACCTAGTGCAG,5620 fluorescence intensity (a.u.)
11,CAGAGGCAAACGTACGTGGAGGCAGGAGGAGTGGTCACCGCGGAGTCACCTAGTGCAG,4440 fluorescence intensity (a.u.)
12,GTACAATTATCGTATTTCGCATAACCAACTCACATATGTTCGGAGTCACCTAGTGCAG,4100 fluorescence intensity (a.u.)
13,GTCCTAGTCTAGTAGTAGTACTACGACGTAACAACACTTCCGGAGTCACCTAGTGCAG,3640 fluorescence intensity (a.u.)
14,ATGTATGACGAGACGTACACGTAAGGGAACGTGCGGTAGGCGGAGTCACCTAGTGCAG,6130 fluorescence intensity (a.u.)
15,GTTGTTAGATGATAAAACATGATTAATACTTTATGCGTGACGGAGTCACCTAGTGCAG,13200 fluorescence intensity (a.u.)
16,TTTGCTATGTGATGTGTCCTGATGAACTTATGAAACGATGCGGAGTCACCTAGTGCAG,3710 fluorescence intensity (a.u.)
17,CAAAGGACGATAACGGAGTAGCAGTTGGCGCAAGGTGCCACGGAGTCACCTAGTGCAG,3990 fluorescence intensity (a.u.)
18,CTTCTTTTGCGAAATCCGTAACAATTCTACTACTATCATGCGGAGTCACCTAGTGCAG,29700 fluorescence intensity (a.u.)
19,AATATAATGGCCGCTCGCTGATGGGTGCGTCATGCACCCTCGGAGTCACCTAGTGCAG,4060 fluorescence intensity (a.u.)
20,GCGGTTGGAGGAAGACGACGTCACCCACCTTTTCCCCTTTCGGAGTCACCTAGTGCAG,7550 fluorescence intensity (a.u.)
21,GGGCAGCGCTAACCCAAAGCTCCTGCGATTCCAAACCGACCGGAGTCACCTAGTGCAG,64800 fluorescence intensity (a.u.)
22,AGTGTGTTTGTGCGTGTTTATAGGGTGAGCGTCTATATTTCGGAGTCACCTAGTGCAG,3260 fluorescence intensity (a.u.)
23,AGTGTTCCTAGCTACAACGAGTGGTTTACTTTCTCATCCTCGGAGTCACCTAGTGCAG,3270 fluorescence intensity (a.u.)
24,TGACCTGACCACCGGTCGTCGTCTTGGGTTGGCTTGGCTTCGGAGTCACCTAGTGCAG,3250 fluorescence intensity (a.u.)
25,TGTTGGCTCCACGTACGGAATCCAGCCAGGCGCCAGTTGGCGGAGTCACCTAGTGCAG,4100 fluorescence intensity (a.u.)
26,ACGCTTGGTGGGGTGGGGTGGTGCTGGTGCCATGAACTGCCGGAGTCACCTAGTGCAG,4070 fluorescence intensity (a.u.)
27,ACGCAGCGGGCCAACTCCAACTCATCCCCAGCCTCCACCACGGAGTCACCTAGTGCAG,4360 fluorescence intensity (a.u.)

# 4 records drawn at random from those above, as already listed:
row,Sequence,binding signal
5,CCGCCCGCCCGCTCTCCTCCTCCTACACGTGGGACCCACCCGGAGTCACCTAGTGCAG,7850 fluorescence intensity (a.u.)
18,CTTCTTTTGCGAAATCCGTAACAATTCTACTACTATCATGCGGAGTCACCTAGTGCAG,29700 fluorescence intensity (a.u.)
8,CTTAGTCGCCATTTTCTTCCCATATCCACGCGCCACGTGGCGGAGTCACCTAGTGCAG,25100 fluorescence intensity (a.u.)
24,TGACCTGACCACCGGTCGTCGTCTTGGGTTGGCTTGGCTTCGGAGTCACCTAGTGCAG,3250 fluorescence intensity (a.u.)
